# PMC10605096
# Amino acid sequences for entries named in this document (tags omitted). A change or cut given only in a name is not applied to a line headed by its entry.
# UniProt I1KR32: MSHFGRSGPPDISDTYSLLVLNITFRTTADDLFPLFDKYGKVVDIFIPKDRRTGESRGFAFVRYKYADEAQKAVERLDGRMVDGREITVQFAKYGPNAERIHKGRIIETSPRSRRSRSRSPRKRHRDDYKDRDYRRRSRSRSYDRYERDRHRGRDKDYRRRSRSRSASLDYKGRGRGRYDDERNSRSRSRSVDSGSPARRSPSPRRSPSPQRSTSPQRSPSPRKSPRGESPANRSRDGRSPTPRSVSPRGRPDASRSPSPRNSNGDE
# UniProt I1LHR2: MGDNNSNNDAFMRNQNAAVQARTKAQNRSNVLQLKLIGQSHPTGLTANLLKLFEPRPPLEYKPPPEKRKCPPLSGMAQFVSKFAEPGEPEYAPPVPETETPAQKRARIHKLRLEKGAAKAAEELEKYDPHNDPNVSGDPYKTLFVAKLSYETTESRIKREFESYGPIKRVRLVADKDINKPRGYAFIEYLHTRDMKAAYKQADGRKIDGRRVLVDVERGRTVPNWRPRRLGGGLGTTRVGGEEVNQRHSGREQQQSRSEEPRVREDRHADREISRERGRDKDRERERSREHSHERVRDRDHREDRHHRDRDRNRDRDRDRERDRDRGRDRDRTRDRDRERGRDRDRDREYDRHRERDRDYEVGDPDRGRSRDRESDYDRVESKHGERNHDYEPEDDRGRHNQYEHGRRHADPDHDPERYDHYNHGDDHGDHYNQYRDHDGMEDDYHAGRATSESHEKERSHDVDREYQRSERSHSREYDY
# UniProt I1L345: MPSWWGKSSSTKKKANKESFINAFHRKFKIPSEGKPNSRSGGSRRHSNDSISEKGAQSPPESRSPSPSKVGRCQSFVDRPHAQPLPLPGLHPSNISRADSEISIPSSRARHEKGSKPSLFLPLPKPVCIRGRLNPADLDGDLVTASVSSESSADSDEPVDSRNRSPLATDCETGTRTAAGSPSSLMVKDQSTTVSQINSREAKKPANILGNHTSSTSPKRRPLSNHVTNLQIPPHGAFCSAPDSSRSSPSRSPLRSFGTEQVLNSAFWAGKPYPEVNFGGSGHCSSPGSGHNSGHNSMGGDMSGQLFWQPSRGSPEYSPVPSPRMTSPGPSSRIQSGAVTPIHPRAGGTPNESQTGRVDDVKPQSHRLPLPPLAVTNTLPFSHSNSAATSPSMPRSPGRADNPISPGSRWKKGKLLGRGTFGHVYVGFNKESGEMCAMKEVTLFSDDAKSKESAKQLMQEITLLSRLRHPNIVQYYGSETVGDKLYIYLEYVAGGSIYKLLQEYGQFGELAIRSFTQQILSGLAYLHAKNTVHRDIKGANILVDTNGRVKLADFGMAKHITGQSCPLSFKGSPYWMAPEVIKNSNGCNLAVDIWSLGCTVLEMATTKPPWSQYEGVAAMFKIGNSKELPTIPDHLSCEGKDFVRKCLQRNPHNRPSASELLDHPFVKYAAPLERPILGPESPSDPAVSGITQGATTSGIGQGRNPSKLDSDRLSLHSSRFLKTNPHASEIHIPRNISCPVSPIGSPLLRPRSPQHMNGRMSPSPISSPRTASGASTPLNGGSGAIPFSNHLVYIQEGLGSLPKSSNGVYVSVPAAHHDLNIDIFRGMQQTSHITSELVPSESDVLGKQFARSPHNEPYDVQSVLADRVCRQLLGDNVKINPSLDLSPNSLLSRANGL
# UniProt C6THB4: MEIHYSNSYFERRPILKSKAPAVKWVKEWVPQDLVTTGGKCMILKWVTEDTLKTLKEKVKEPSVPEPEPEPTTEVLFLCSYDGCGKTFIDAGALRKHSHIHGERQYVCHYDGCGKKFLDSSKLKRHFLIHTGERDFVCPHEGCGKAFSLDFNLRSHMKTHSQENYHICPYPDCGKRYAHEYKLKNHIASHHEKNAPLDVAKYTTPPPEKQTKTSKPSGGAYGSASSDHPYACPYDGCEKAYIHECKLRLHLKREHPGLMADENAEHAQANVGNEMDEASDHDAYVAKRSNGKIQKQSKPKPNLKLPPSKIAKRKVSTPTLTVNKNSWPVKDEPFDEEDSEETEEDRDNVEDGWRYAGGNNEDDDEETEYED
# UniProt A0A0R0KPC1: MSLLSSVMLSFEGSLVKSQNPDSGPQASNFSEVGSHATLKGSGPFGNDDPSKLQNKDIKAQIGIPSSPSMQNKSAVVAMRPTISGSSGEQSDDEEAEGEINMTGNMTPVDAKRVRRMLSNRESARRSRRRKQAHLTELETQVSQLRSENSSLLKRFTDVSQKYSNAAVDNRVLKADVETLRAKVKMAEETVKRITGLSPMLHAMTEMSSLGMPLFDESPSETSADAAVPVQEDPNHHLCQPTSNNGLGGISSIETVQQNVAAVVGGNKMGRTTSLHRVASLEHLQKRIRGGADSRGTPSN
# How the values were obtained:
# [1] = target: GmSIT4 (BD fusion for Y2H) (Glycine max (soybean)) (UniProt K7LBE9); assay: two-hybrid; bait in pGBKT7 (BD-K/Ps), prey in pGADT7 (AD-interacting proteins), co-transformed into Y2H gold yeast; growth on selective media for 5-8 days at 28 °C
# [2] = target: GmSIT4 (cLUC fusion for split-LUC) (Glycine max (soybean)) (UniProt K7LBE9); assay: split reporter; split-LUC complementation: cLUC-K/Ps and nLUC-interacting proteins co-infiltrated by Agrobacterium GV3101 into 4-week-old tobacco leaves; LUC signals observed after 48 h
# [3] = target: GmPRP4KA (BD fusion for Y2H) (Glycine max (soybean)); assay: two-hybrid; bait in pGBKT7 (BD-K/Ps), prey in pGADT7 (AD-interacting proteins), co-transformed into Y2H gold yeast; growth on selective media for 5-8 days at 28 °C
# [4] = target: GmPRP4KA (cLUC fusion for split-LUC) (Glycine max (soybean)); assay: split reporter; split-LUC complementation: cLUC-K/Ps and nLUC-interacting proteins co-infiltrated by Agrobacterium GV3101 into 4-week-old tobacco leaves; LUC signals observed after 48 h
# [5] = target: GmMPK9 (BD fusion for Y2H) (Glycine max (soybean)); assay: two-hybrid; bait in pGBKT7 (BD-K/Ps), prey in pGADT7 (AD-interacting proteins), co-transformed into Y2H gold yeast; growth on selective media for 5-8 days at 28 °C
# [6] = target: GmMPK9 (cLUC fusion for split-LUC) (Glycine max (soybean)); assay: split reporter; split-LUC complementation: cLUC-K/Ps and nLUC-interacting proteins co-infiltrated by Agrobacterium GV3101 into 4-week-old tobacco leaves; LUC signals observed after 48 h
# [7] = target: GmSnRK1β (BD fusion for Y2H) (Glycine max (soybean)); assay: two-hybrid; bait in pGBKT7 (BD-K/Ps), prey in pGADT7 (AD-interacting proteins), co-transformed into Y2H gold yeast; growth on selective media for 5-8 days at 28 °C
# [8] = target: GmSnRK1β (cLUC fusion for split-LUC) (Glycine max (soybean)); assay: split reporter; split-LUC complementation: cLUC-K/Ps and nLUC-interacting proteins co-infiltrated by Agrobacterium GV3101 into 4-week-old tobacco leaves; LUC signals observed after 48 h
substance,measurement,setting,value
GmNUC-L2 (AD fusion for Y2H) (from UniProt I1LPJ9),binding,[1],binds
GmNUC-L2 (nLUC fusion for split-LUC) (from UniProt I1LPJ9),binding,[2],binds
GmSC35 (AD fusion for Y2H) (from UniProt I1KR32),binding,[3],binds
GmSC35 (nLUC fusion for split-LUC) (from UniProt I1KR32),binding,[4],binds
GmU1-70K (AD fusion for Y2H) (from UniProt I1LHR2),binding,[3],binds
GmU1-70K (nLUC fusion for split-LUC) (from UniProt I1LHR2),binding,[4],binds
GmYODA (AD fusion for Y2H) (from UniProt I1L345) (enzyme),binding,[5],binds
GmYODA (nLUC fusion for split-LUC) (from UniProt I1L345) (enzyme),binding,[6],binds
GmYY1 (AD fusion for Y2H) (from UniProt C6THB4),binding,[5],binds
GmYY1 (nLUC fusion for split-LUC) (from UniProt C6THB4),binding,[6],binds
GmbZIP63 (AD fusion for Y2H) (from UniProt A0A0R0KPC1),binding,[7],binds
GmbZIP63 (nLUC fusion for split-LUC) (from UniProt A0A0R0KPC1),binding,[8],binds

# Results are given in words; binding and its absence hold for the method and conditions named. A result given as binding can be weak or reduced; the word gives no strength. For part of these data: In cells and extracts the contact can be indirect.
